Experimental data reported in patent US20210371518A1 (University of Texas, published 2021).
No constants are given. Whether binding was seen depends on the method and setting. Some results given as binding are weak or reduced against the parent protein; the word gives no strength.

By UniProt entry, the sequences of proteins in these tests, tags left out. Residues count along the entry.
UniProt Q8NHJ6, residues 22-259: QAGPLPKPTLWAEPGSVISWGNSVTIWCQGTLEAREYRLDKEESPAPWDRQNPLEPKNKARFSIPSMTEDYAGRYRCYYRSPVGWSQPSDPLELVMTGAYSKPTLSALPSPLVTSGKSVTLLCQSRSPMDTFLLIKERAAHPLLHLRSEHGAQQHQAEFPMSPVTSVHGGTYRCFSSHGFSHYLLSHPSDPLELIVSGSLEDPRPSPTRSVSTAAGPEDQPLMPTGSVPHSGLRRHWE
UniProt P02649, residues 19-317: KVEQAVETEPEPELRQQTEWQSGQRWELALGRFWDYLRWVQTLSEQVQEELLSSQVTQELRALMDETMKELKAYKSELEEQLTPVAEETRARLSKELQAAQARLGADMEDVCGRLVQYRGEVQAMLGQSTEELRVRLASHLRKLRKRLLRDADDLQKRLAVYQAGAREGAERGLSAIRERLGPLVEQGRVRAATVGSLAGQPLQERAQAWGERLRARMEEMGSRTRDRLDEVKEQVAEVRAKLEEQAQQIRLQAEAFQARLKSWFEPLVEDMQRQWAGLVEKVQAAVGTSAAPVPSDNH

Target: LILRB4-Fc (human) (UniProt Q8NHJ6)
Test: SPR and bio-layer interferometry, LILRB4-Fc captured on protein A

recombinant APOE (from UniProt P02649 19-317) (ligand)
binding: binds
